Test results published in article PMC7501283.
Results are given in words; binding and its absence hold for the method and conditions named.

Protein sequences, listed by entry. Tags and fused reporters are not part of them. Residues count along the entry.
UniProt Q96SW2: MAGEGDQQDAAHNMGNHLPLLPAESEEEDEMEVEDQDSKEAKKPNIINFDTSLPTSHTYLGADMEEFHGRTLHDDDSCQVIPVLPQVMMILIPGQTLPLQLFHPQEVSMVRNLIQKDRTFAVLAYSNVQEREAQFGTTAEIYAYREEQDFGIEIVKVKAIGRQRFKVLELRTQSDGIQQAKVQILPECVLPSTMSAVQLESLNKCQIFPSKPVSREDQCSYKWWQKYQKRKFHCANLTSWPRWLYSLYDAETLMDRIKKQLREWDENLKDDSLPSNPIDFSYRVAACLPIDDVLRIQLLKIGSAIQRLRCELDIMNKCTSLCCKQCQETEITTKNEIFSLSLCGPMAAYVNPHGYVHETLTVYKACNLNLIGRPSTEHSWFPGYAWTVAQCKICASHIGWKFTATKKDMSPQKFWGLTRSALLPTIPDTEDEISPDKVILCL
UniProt Q9UJQ4, residues 410-432: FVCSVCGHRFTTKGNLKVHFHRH

Molecular target: biotinylated CRBN (cereblon) (human) (UniProt Q96SW2)
Test: AlphaScreen or HTRF; biotinylated CRBN (streptavidin donor beads) with FLAG-GST-Venus-m1, -m2 or -m3 (anti-DYKDDDDK mAb, Protein A acceptor beads); IMiD 50 µM; 100 mM Tris pH 8.0, 0.01% Tween20, 100 mM NaCl, 1 mg/ml BSA; 26 °C, 1 h; proteins from the wheat cell-free system

binding: no binding
Substance: FLAG-GST-Venus-m3 (SALL4 410-432) (from UniProt Q9UJQ4 410-432) (domain or fragment)
